Laboratory results taken from publication doi:10.1101/142505.
No constants are given. Whether binding was seen depends on the method and setting. Where a sequence is shown, tags or fusion partners need not be part of it.

Biological target: T1, 6XHis-GlActin (Giardia lamblia), P51775
T1 chain: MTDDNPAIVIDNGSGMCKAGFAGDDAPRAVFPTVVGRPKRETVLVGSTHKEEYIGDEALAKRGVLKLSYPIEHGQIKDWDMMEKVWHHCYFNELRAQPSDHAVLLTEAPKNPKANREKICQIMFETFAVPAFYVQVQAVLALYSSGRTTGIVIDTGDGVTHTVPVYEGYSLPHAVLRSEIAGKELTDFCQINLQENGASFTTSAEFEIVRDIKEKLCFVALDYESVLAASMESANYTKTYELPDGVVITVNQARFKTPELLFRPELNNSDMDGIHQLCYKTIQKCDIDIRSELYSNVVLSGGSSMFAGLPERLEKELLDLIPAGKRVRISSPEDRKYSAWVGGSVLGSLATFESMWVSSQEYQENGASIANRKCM
Experiment: far-Western, overlay or dot blot
Conditions: remark: other sources report otherwise

binding: no binding (tested: 10 μg/ml)
B1: recombinant wild type GST-fused Gl14-3-3, E2RU97 1-248 (protein)
chain: MAEAFTREDYVFMAQLNENAERYDEMVETMRKISGMEGELSDKERNLLSVAYKNVIGPRRAAWRIVSSIEAKEKGRQKPNAKRIEQIRVYRQKIEKELSDICNDILKLLQEQFVPRSTNADAKVFYYKMQGDYYRYLAEYSSGEDKEKIAGSALNAYNSAFEISQQLPPTHPIRLGLALNFSVFYYEILASPDRACELARKAFDAAITDLDKLTEESYKDSTLIMQLLRDNLNLWVTDSAGDDNAEEK
modifications: here or on the partner: a fraction phosphorylated on serine (anti-pSer blot); residues not stated
